This is one part of the list.
Each compound was assayed on T1, CTL2-GFP (C. trachomatis L2/434/Bu, GFP-expressing). Details: bulk GFP, single well; 28.5 h, 10 µM; inhibitor.
T1 construct: L2/434/Bu, GFP-expressing
Set-up: species or system HeLa; Intracellular C. trachomatis growth in HeLa cells, bulk GFP fluorescence relative to DMSO
In the case of O=C(NC1CC2CCC(C1)N2Cc1ccccc1)c1cccc(Cl)c1 (stereo not shown) [CBK116291], the “% of control remaining” value is reported as 106.554%. For CN1CCN(C(=O)CN(Cc2ccc(Cl)cc2)S(=O)(=O)c2ccc(Br)cc2)CC1 [CBK265771], the “% of control remaining” value was 140.728%. With Cc1ccc(S(=O)(=O)Nc2nc3ccccc3nc2Nc2ccc(C(=O)O)cc2)cc1C [CBK300516] the “% of control remaining” value was 145.177%. For COCc1cc(O)nc(Cc2c(Cl)cccc2Cl)n1 [CBK022389], the “% of control remaining” value was 100%. For CCOc1ccc(-c2cncc(Nc3ccc4c(c3)OC(F)(F)C(F)(F)O4)n2)cc1 [CBK065728], the “% of control remaining” value was 126.123%. With COc1ccc(N2CCN(c3cc(-c4cccc([N+](=O)[O-])c4)ncn3)CC2)cc1OC [CBK091031] the “% of control remaining” value was 150.132%. For CCN(CC)CC(O)Cn1ccc(-c2cccs2)n1 (stereo not shown) [CBK005967], the “% of control remaining” value was 136.11%. For COc1ccc(CN2CCC(c3ncc(C(=O)Nc4ccc(F)cc4)c(C)n3)CC2)cc1 [CBK285629], the “% of control remaining” value was 94.7488%. With NC(=O)c1cccc(CN2CCOC3(CCN(C(=O)OCc4ccccc4)CC3)C2)c1 [CBK161100T] the “% of control remaining” value was 127.959%. For O=C(COc1ccc(-c2ccccc2)cc1Cl)N1CCN(C(=O)C2CC2)CC1 [CBK295640], the “% of control remaining” value was 102.485%. CC(C)(C)OC(=O)N(c1cncc(N2CCNCC2)n1)[C@@H]1CCOc2ccccc21 [CBK172251G] was tested, and the “% of control remaining” value was 130.53%. O=c1c(-c2nncn2-c2ccccc2)coc2c(O)c(O)ccc12 [CBK266889] was tested, and the “% of control remaining” value was 153.194%. CC(=O)[C@H]1C[C@@H](CC(=O)Nc2cc3cccnc3nc2Cl)C1(C)C [CBK091351] was tested, and the “% of control remaining” value was 128.961%. For Cc1nc(CC(=O)N2CCC[C@@H]3[C@H]2CCCCc2ccccc2OCC(=O)N3C)cs1 [CBK292091], the “% of control remaining” value was 83.6459%. In the case of Cn1ncc2c(NCCCC3CCOC3)nc(C(C)(C)C)nc21 (stereo not shown) [CBK307363], the “% of control remaining” value is reported as 110.18%. In the case of O=C(c1nccs1)C1CCN(C(=O)C2CCCCC2)CC1 [CBK284175], the “% of control remaining” value is reported as 106.679%. With O=C(O)[C@H]1CN(C(=O)c2cccs2)C[C@@H]1c1ccc(F)cc1 [CBK283734] the “% of control remaining” value was 151.661%. For O=C(O)CCC(=O)Nc1ccc(C(=O)N2CCCc3ccccc32)cc1 [CBK269118], the “% of control remaining” value was 81.2756%. With COc1ccccc1-c1nnc(SCC(=O)Nc2nccs2)o1 [CBK287390] the “% of control remaining” value was 107.467%. In the case of COc1cc(C2C3=C(CC(C)(C)CC3=O)Nc3ncnn32)cc(OC)c1OC (stereo not shown) [CBK265646], the “% of control remaining” value is reported as 127.374%. For CC(Oc1ccc(F)cc1)C(=O)N(C)CC1(C)COC1 (stereo not shown) [CBK281702], the “% of control remaining” value was 123.961%. For CCCC1CCN(c2ncnc(Oc3ccc(C(=O)c4ccc(F)cc4)cc3)c2[N+](=O)[O-])CC1 [CBK116495], the “% of control remaining” value was 92.4138%. With C1CN(c2nc(N3CCOCC3)nc(N3CCOCC3)n2)CCN1 [CBK261380] the “% of control remaining” value was 100%. Cn1cc(CCCC(=O)NCCC2=CCCCC2)c2ccccc21 [CBK061756] was tested, and the “% of control remaining” value was 100.935%. For C1=CC2N=C(SCc3ccccc3)OC2C=C1 (stereo not shown) [CBK021412], the “% of control remaining” value was 138.983%. In the case of O=C(Nc1cccc(Oc2ccccc2)c1)c1ccc2[nH]ccc2c1 [CBK161728], the “% of control remaining” value is reported as 84.7339%. COc1cnc(-c2ccccc2OC)c(NC(=O)c2ccccc2)n1 [CBK145261] was tested, and the “% of control remaining” value was 143.937%. With O=C(NC(=S)Nc1ccc(C(=O)O)c(Cl)c1)c1ccc(-c2ccc(Cl)cc2)o1 [CBK265063] the “% of control remaining” value was 93.2685%. In the case of CN(c1ccccc1)c1cc(-c2cccc(O)c2)nc2ccnn12 [CBK037121], the “% of control remaining” value is reported as 88.1887%. With COc1ccc(CCNC(=O)N2CCN(C3CCN(C)CC3)CC2)cc1OC [CBK155897] the “% of control remaining” value was 131.005%. With O=C(CC1(C(=O)O)CCCC1)NC1CCS(=O)(=O)C1 (stereo not shown) [CBK286855] the “% of control remaining” value was 128.37%. CN(C)CCn1c(=O)c2c(ncn2C)n(C)c1=O [CBK012590] was tested, and the “% of control remaining” value was 101.954%. For CCc1[nH]nc(C)c1Cc1c(Cl)cccc1Cl [CBK093598], the “% of control remaining” value was 93.0579%. CC(C)CNc1nc(-c2cccnc2)cnc1N [CBK063780] was tested, and the “% of control remaining” value was 173.683%. In the case of Cc1ccc2c(c1)C(Oc1cncc(N3CCNCC3)n1)CCO2 (stereo not shown) [CBK172334G], the “% of control remaining” value is reported as 114.813%. COc1ccc(C(=O)Nc2ccc3c(c2)C(=O)N(CCC(=O)O)C3=O)cc1 [CBK265921] was tested, and the “% of control remaining” value was 100%. O=C(Cn1c[n+]([N-][N+](=O)[O-])cn1)Nc1ncc(Br)cc1Br [CBK262342] was tested, and the “% of control remaining” value was 100%. With Cc1ccc(CN2CCC(O)(Cn3ccc4ncccc43)CC2)o1 [CBK284751] the “% of control remaining” value was 143.11%. With Cc1ccc(NS(=O)(=O)c2cc3c(OC4CCNCC4)nccc3s2)cc1 [CBK046309C] the “% of control remaining” value was 112.228%. With O=C(Nc1ccccc1)c1ccc(COc2ccc3ccccc3c2)o1 [CBK265897] the “% of control remaining” value was 98.8422%.

Source: publication PMC12040169 (PLOS Biology, 2025)
